doi:10.1101/2023.09.17.558134 (bioRxiv, 2023)

Test system: RNAP core + sigma70
Test: heparin challenge of open complex, read by single-round transcription
Details: no CedA, 10 ug/ml heparin, shorter RPo lifetime than with CedA

Question: Does “TGGCAGTTTTAGGCTGATTTGGTTGAATGTTGCGCGGTCAGAAAATTATTTTAAATTTCCTCTTGTCAGGCCGGAATAACTCCCTATAATGCGCCACCACTGACACGGAACAACGGCAAACACGCCGCCGGGTCAGCGGGGTTCTCCTGAGAACTCCGGCAGAGAAAGCAAAAATAAATGC (double strand) [rrnBP1 promoter fragment]” bind?
Answer: binds more weakly

For at least one entry, the source does not settle the construct or the ends of the probe. Weaker means in comparison with the reference protein, sequence or condition of that experiment. At least one verdict was read from the data and is not stated in words by the source.
